# Source: the supplement of paper PMC8728848
# Some of the results follow.
# B1: GS7807G-bfa-506-18-506 (Bacteroides fragilis) (protein)
# chain: ASCDKFDEINTDPDATTKVTSSLLATGLLLDITSSSASKSFIYDELLAKQMAWGESMEDYQYNVFGRSGFGGYTTLINAQKMVESVSDDNVNAYDGLAHFIKAYKIFYMSMEMGDLPYEEALQGELGLVRPKYNTQKEVMNFILSDLETAYELFSTAKDFDGDPILGGSISKWKKATTAFQLKVLMHLSKKESDADLKVKERFARIVASGSLMESNEDNLQMKYADKANTVYPFHNTNTKHAGYAMLSTMLIDKFKATGDIRMFYYAKPAKAKLNEGVTADSWDAYIGTDPSLPFEQIEKAYATEQYSGFNARYTDYPSGEPVVRLGYAEQNFILAEAAVRGWISGDASAYYKKAIRAHMEFIASNTPDEEVYHHGHPITEEAIAAFLETPAIQLSGEKEEDIEKILTQRYLASFMQHPYDVYYDYRRTGYPVLPINPATNRNTMNDRLPMRWMYPKSESDYNLEHQNEALERQFGGVDDVNKLMWILQ
# How the values were obtained:
# Test in all cases: glycan array binding signal (z-score within array); higher = stronger binding
# Conditions in all cases: glycan notation: IUPAC condensed, linker removed
# Glc(b1-6)Glc = molecular target: Glc(b1-6)Glc
# Method in brief: (§1)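 The Consortium for Functional Glycomics database supplied 3228 glycan arrays, of which those lacking an available protein sequence were dropped. The binding signal, a within-array Z-score, was averaged across arrays of the same protein sequence and across linkers. Negative scores can be read as non-binding.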
# GlcA(b1-3)Gal = molecular target: GlcA(b1-3)Gal
# Method in brief: as §1
# GlcA(b1-3)GlcNAc = molecular target: GlcA(b1-3)GlcNAc
# Method in brief: as §1
# GlcA(b1-6)Gal = molecular target: GlcA(b1-6)Gal
# Method in brief: as §1
# [1] = molecular target: GlcA3S(b1-3)Gal(b1-4)GlcNAc(b1-2)Man
# Method in brief: as §1
# [2] = molecular target: GlcA3S(b1-3)Gal(b1-4)GlcNAc(b1-3)Gal(b1-4)Glc
# Method in brief: as §1
# [3] = molecular target: GlcNAc(a1-3)Gal(b1-4)GlcNAc
# Method in brief: as §1
# [4] = molecular target: GlcNAc(a1-4)Gal(b1-3)GlcNAc
# Method in brief: as §1
# [5] = molecular target: GlcNAc(a1-4)Gal(b1-4)GalNAc
# Method in brief: as §1
# [6] = molecular target: GlcNAc(a1-4)Gal(b1-4)GlcNAc
# Method in brief: as §1
# [7] = molecular target: GlcNAc(a1-4)Gal(b1-4)GlcNAc(b1-3)Gal(b1-4)Glc
# Method in brief: as §1
# [8] = molecular target: GlcNAc(a1-4)Gal(b1-4)GlcNAc(b1-3)Gal(b1-4)GlcNAc
# Method in brief: as §1
# [9] = molecular target: GlcNAc(a1-4)Gal(b1-4)GlcNAc(b1-3)Gal(b1-4)GlcNAc(b1-3)Gal(b1-4)GlcNAc
# Method in brief: as §1
# [10] = molecular target: GlcNAc(a1-4)Gal(b1-4)GlcNAc(b1-3)Gal(b1-4)[Fuc(a1-3)]GlcNAc(b1-3)Gal(b1-4)[Fuc(a1-3)]GlcNAc
# Method in brief: as §1
# [11] = molecular target: GlcNAc(a1-6)Gal(b1-4)GlcNAc
# Method in brief: as §1
# [12] = molecular target: GlcNAc(b1-2)Gal(b1-3)GalNAc
# Method in brief: as §1
# [13] = molecular target: GlcNAc(b1-2)Man(a1-3)[GlcNAc(b1-2)Man(a1-6)]Man(b1-4)GlcNAc(b1-4)GlcNAc
# Method in brief: as §1
# [14] = molecular target: GlcNAc(b1-2)Man(a1-3)[GlcNAc(b1-2)Man(a1-6)]Man(b1-4)GlcNAc(b1-4)[Fuc(a1-6)]GlcNAc
# Method in brief: as §1
# [15] = molecular target: GlcNAc(b1-2)Man(a1-3)[GlcNAc(b1-4)][GlcNAc(b1-2)Man(a1-6)]Man(b1-4)GlcNAc(b1-4)GlcNAc
# Method in brief: as §1
# [16] = molecular target: GlcNAc(b1-2)Man(a1-3)[GlcNAc(b1-4)][GlcNAc(b1-2)Man(a1-6)]Man(b1-4)GlcNAc(b1-4)[Fuc(a1-6)]GlcNAc
# Method in brief: as §1
# [17] = molecular target: GlcNAc(b1-2)[GlcNAc(b1-4)]Man(a1-3)[GlcNAc(b1-2)Man(a1-6)]Man(b1-4)GlcNAc(b1-4)GlcNAc
# Method in brief: as §1
# [18] = molecular target: GlcNAc(b1-2)[GlcNAc(b1-4)]Man(a1-3)[GlcNAc(b1-4)][GlcNAc(b1-2)Man(a1-6)]Man(b1-4)GlcNAc(b1-4)GlcNAc
# Method in brief: as §1
# [19] = molecular target: GlcNAc(b1-2)[GlcNAc(b1-4)]Man(a1-3)[GlcNAc(b1-4)][GlcNAc(b1-2)[GlcNAc(b1-6)]Man(a1-6)]Man(b1-4)GlcNAc(b1-4)GlcNAc
# Method in brief: as §1
# [20] = molecular target: GlcNAc(b1-2)[GlcNAc(b1-4)]Man(a1-3)[GlcNAc(b1-4)][GlcNAc(b1-2)[GlcNAc(b1-6)]Man(a1-6)]Man(b1-4)GlcNAc(b1-4)[Fuc(a1-6)]GlcNAc
# Method in brief: as §1
# [21] = molecular target: GlcNAc(b1-2)[GlcNAc(b1-6)]Man(a1-6)[GlcNAc(b1-2)Man(a1-3)]Man(b1-4)GlcNAc(b1-4)GlcNAc
# Method in brief: as §1
# [22] = molecular target: GlcNAc(b1-2)[GlcNAc(b1-6)]Man(a1-6)[GlcNAc(b1-2)Man(a1-3)]Man(b1-4)GlcNAc(b1-4)[Fuc(a1-6)]GlcNAc
# Method in brief: as §1
# [23] = molecular target: GlcNAc(b1-2)[GlcNAc(b1-6)]Man(a1-6)[GlcNAc(b1-4)][GlcNAc(b1-2)Man(a1-3)]Man(b1-4)GlcNAc(b1-4)GlcNAc
# Method in brief: as §1
# GlcNAc(b1-3)Fuc = molecular target: GlcNAc(b1-3)Fuc
# Method in brief: as §1
# GlcNAc(b1-3)Gal = molecular target: GlcNAc(b1-3)Gal
# Method in brief: as §1
# [24] = molecular target: GlcNAc(b1-3)Gal(b1-3)GalNAc
# Method in brief: as §1
# GlcNAc(b1-3)Gal(b1-4)Glc = molecular target: GlcNAc(b1-3)Gal(b1-4)Glc
# Method in brief: as §1
# [25] = molecular target: GlcNAc(b1-3)Gal(b1-4)GlcNAc
# Method in brief: as §1
# [26] = molecular target: GlcNAc(b1-3)Gal(b1-4)GlcNAc(b1-2)Man(a1-3)[GlcNAc(b1-3)Gal(b1-4)GlcNAc(b1-2)Man(a1-6)]Man(b1-4)GlcNAc(b1-4)GlcNAc
# Method in brief: as §1
# [27] = molecular target: GlcNAc(b1-3)Gal(b1-4)GlcNAc(b1-2)Man(a1-3)[GlcNAc(b1-3)Gal(b1-4)GlcNAc(b1-2)Man(a1-6)]Man(b1-4)GlcNAc(b1-4)[Fuc(a1-6)]GlcNAc
# Method in brief: as §1
# [28] = molecular target: GlcNAc(b1-3)Gal(b1-4)GlcNAc(b1-2)[GlcNAc(b1-3)Gal(b1-4)GlcNAc(b1-6)]Man(a1-6)[GlcNAc(b1-3)Gal(b1-4)GlcNAc(b1-2)Man(a1-3)]Man(b1-4)GlcNAc(b1-4)GlcNAc
# Method in brief: as §1
# [29] = molecular target: GlcNAc(b1-3)Gal(b1-4)GlcNAc(b1-3)Gal(b1-4)GlcNAc
# Method in brief: as §1
# [30] = molecular target: GlcNAc(b1-3)Gal(b1-4)GlcNAc(b1-3)Gal(b1-4)GlcNAc(b1-2)Man(a1-3)[GlcNAc(b1-3)Gal(b1-4)GlcNAc(b1-3)Gal(b1-4)GlcNAc(b1-2)Man(a1-6)]Man(b1-4)GlcNAc(b1-4)GlcNAc
# Method in brief: as §1
binder,measurement,setting,value
B1,glycan array binding signal (z-score),Glc(b1-6)Glc,-0.717
same,glycan array binding signal (z-score),GlcA(b1-3)Gal,-0.386
same,glycan array binding signal (z-score),GlcA(b1-3)GlcNAc,-0.379
same,glycan array binding signal (z-score),GlcA(b1-6)Gal,2.31
same,glycan array binding signal (z-score),[1],-0.372
same,glycan array binding signal (z-score),[2],0.312
same,glycan array binding signal (z-score),[3],-0.747
same,glycan array binding signal (z-score),[4],-0.767
same,glycan array binding signal (z-score),[5],-0.899
same,glycan array binding signal (z-score),[6],-0.649
same,glycan array binding signal (z-score),[7],-0.832
same,glycan array binding signal (z-score),[8],-0.812
same,glycan array binding signal (z-score),[9],-0.892
same,glycan array binding signal (z-score),[10],1.28
same,glycan array binding signal (z-score),[11],-0.271
same,glycan array binding signal (z-score),[12],-0.909
same,glycan array binding signal (z-score),[13],-0.632
same,glycan array binding signal (z-score),[14],0.919
same,glycan array binding signal (z-score),[15],-0.508
same,glycan array binding signal (z-score),[16],-0.931
same,glycan array binding signal (z-score),[17],-0.615
same,glycan array binding signal (z-score),[18],-0.691
same,glycan array binding signal (z-score),[19],-1.04
same,glycan array binding signal (z-score),[20],-0.588
same,glycan array binding signal (z-score),[21],-0.456
same,glycan array binding signal (z-score),[22],-0.524
same,glycan array binding signal (z-score),[23],-0.548
same,glycan array binding signal (z-score),GlcNAc(b1-3)Fuc,-0.449
same,glycan array binding signal (z-score),GlcNAc(b1-3)Gal,-0.823
same,glycan array binding signal (z-score),[24],-0.547
same,glycan array binding signal (z-score),GlcNAc(b1-3)Gal(b1-4)Glc,-0.386
same,glycan array binding signal (z-score),[25],-0.706
same,glycan array binding signal (z-score),[26],0.156
same,glycan array binding signal (z-score),[27],1.14
same,glycan array binding signal (z-score),[28],0.698
same,glycan array binding signal (z-score),[29],0.571
same,glycan array binding signal (z-score),[30],0.363

# 2 consecutive records already listed:
binder,measurement,setting,value
B1,glycan array binding signal (z-score),[21],-0.456
same,glycan array binding signal (z-score),[22],-0.524
